In publication PMC8490708:

Biological target: T1, CBX4-YFP (human) (UniProt O00257)
T1 sequence: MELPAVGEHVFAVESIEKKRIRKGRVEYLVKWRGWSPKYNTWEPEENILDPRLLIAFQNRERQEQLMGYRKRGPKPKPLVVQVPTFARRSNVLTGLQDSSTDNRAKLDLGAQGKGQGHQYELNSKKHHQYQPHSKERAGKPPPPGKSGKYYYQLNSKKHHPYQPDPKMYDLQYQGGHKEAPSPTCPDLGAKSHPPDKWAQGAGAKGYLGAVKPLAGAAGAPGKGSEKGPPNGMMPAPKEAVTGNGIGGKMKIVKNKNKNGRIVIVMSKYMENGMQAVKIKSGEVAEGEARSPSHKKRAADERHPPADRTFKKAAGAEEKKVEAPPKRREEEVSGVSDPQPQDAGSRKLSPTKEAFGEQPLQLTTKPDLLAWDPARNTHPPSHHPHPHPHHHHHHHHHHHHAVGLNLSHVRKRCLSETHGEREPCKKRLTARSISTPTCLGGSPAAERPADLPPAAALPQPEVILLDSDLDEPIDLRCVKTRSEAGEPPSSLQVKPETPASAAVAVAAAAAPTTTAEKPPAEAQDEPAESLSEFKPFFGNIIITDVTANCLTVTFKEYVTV
Assay: pull-down; GFP-Trap co-pulldown: YFP-tagged bait and HA-tagged prey co-transfected in HEK 293FT cells; lysate (150 mM NaCl, 1% NP-40, 0.5% Triton X-100) with GFP-Trap resin overnight at 4°C; washes with 300 mM NaCl; Western blot

Question: For “SALL1^826-2xHA (human) (domain or fragment)”, which binding is on record?
Answer: The binding was “binds”.

These are yes or no findings as the source states them, for the method shown. In cells and extracts the contact can be indirect. Binding can be weak; no strength is given. Sequences can lack the tags named with a protein.
